Step yield data for twelve substances are collected here from patent US4703106A (Mitsubishi Petrochemical Co., Ltd., priority 1984, dated 1987).

This series in a line: general procedure: solution-phase peptide synthesis; WSC/HOBT; DCC/HOSU; active esters (OSU, ONP). The conditions noted are these: coupling step.

*: point of attachment. Tos = Cc1ccc(S(=O)(=O)*)cc1; Boc = CC(C)(C)OC(=O)*; OBn = c1ccc(CO*)cc1; Bn = c1ccc(C*)cc1

For Boc-AGT(Bn)P-NH2, the step yield came to 62.4%.

“BOC-Glu(OBzl)-Leu-His-Lys[Cbz(o-Cl)]-Leu-Gln-Thr(Bzl)-Tyr(Bzl)-Pro-Arg(Tos)-Thr(Bzl)-Asp(OBzl)-Val-Gly-Ala-Gly-Thr(Bzl)-Pro-NH2” gave a step yield of 73.3%. “BOC-Lys(Cbz)-Leu-Ser(Bzl)-Gln-Glu(OBzl)-Leu-His-Lys[Cbz(o-Cl)]-Leu-Gln-Thr(Bzl)-Tyr(Bzl)-Pro-Arg(Tos)-Thr(Bzl)-Asp(OBzl)-Val-Gly-Ala-Gly-Thr(Bzl)-Pro-NH2”: the step yield came out at 69.8%. Consider “Boc-QT(Bn)Y(Bn)PR(Tos)T(Bn)D(OBn)VGAGT(Bn)P-NH2”, for which the step yield is reported as 88.5%. The value for “AOC-Arg(Tos)-Thr(Bzl)-Asp(OBzl)-Val-Gly-Ala-Gly-Thr(Bzl)-Pro-NH2” was 74.8%; that for “BOC-Gln-Glu(OBzl)-Leu-His-Lys[Cbz(o-Cl)]-Leu-Gln-Thr(Bzl)-Tyr(Bzl)-Pro-Arg(Tos)-Thr(Bzl)-Asp(OBzl)-Val-Gly-Ala-Gly-Thr(Bzl)-Pro-NH2” was 92.3%. The value for “Boc-T(Bn)Y(Bn)PR(Tos)T(Bn)D(OBn)VGAGT(Bn)P-NH2” was 71.7%; that for “BOC-Leu-His-Lys[Cbz(o-Cl)]-Leu-Gln-Thr(Bzl)-Tyr(Bzl)-Pro-Arg(Tos)-Thr(Bzl)-Asp(OBzl)-Val-Gly-Ala-Gly-Thr(Bzl)-Pro-NH2” was 92.1%; that for Boc-T(Bn)D(OBn)VGAGT(Bn)P-NH2 was 65.5%. In turn, Boc-D(OBn)VGAGT(Bn)P-NH2 had a step yield of 80.9%.

In turn, Boc-VGAGT(Bn)P-NH2 returned a step yield of 71.2%. “BOC-Lys[Cbz(o-Cl)]-Leu-Gln-Thr(Bzl)-Tyr(Bzl)-Pro-Arg(Tos)-Thr(Bzl)-Asp(OBzl)-Val-Gly-Ala-Gly-Thr(Bzl)-Pro-NH2” yielded a step yield of 83.3%.
